According to PubChem BioAssay AID1347076 (National Center for Advancing Translational Sciences (NCATS), 2019):
Out of some 400,000 compounds screened, about 13,000 (3.2%) were called active. Inconclusive means that the source gave no clear call. Such entries were picked first, then a sample of the others. Calls follow the shape of the dose curve; as a rule, active = well fitted cell-killing curve with a large enough effect; inconclusive = small, poorly fitted or top-dose-only effect, or effect the other way; inactive = flat fitted curve, though single readings scatter. Potencies beside an inconclusive call are fits to weak or partial responses and may not hold up.

Experiment: qHTS assay for MDR1-selective chemotherapeutics: Primary screen using the drug-selected MDR subline cells KB-V1; also: nearly all actives have a fitted effect of over 60% in size
Conditions: KB-V1 MDR cells viability, CellTiter-Glo, 72 h; series mostly up to 46.1 µM
Outline: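 Readout: CellTiter-Glo luminescence, 10 min after addition. Cells: KB-V1 MDR subline, 72 h at 37 degrees C with compound. Analysis: corrected, normalized data fitted to concentration-effect curves.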
Potency is read from the fitted curve at half-maximal effect.

Row | Compound | Potency
1 | CCOc1ccc(OCCC(=O)OCC(=O)NCc2ccccc2)cc1 | inconclusive: 29.1 µM [rising, single point]
2 | CCOC(=O)c1ccc(NC(=O)CSc2nc3ncccc3[nH]2)cc1 | inconclusive: 29.1 µM [cytotoxic, single point]
3 | COc1ccc(CCNc2nc(=S)[nH]c3cc(OC)c(OC)cc23)cc1OC | inactive
4 | CCN(CC)CCN(C)C(=O)c1ccc(OC2CCN(C(=O)C3CC3)CC2)cc1 | inconclusive: 0.461 µM [rising, full curve, poor fit]
5 | Cn1c(=O)oc2cc(S(=O)(=O)NCCC(=O)N3CCc4ccccc43)ccc21 | inconclusive: 14.6 µM [cytotoxic, partial curve]
6 | CCOc1ccc(-c2cc(C(=O)N3CCC(C)CC3)c3ccccc3n2)cc1 | inconclusive: 4.61 µM [cytotoxic, full curve]
7 | Cc1cc(NC(=O)CSc2nnc(CNC(=O)c3c(F)cccc3F)o2)no1 | inconclusive: 4.11 µM [rising, full curve]
8 | CCC(=O)Nc1cccc(C2=NOC3(C2)C[C@@H](C(N)=O)N(C(=O)C2(C)CC2)C3)c1 (stereo not given in full) | inconclusive: 3.66 µM [rising, full curve, poor fit]
9 | CC(=O)c1ccc(N2CCN(C(=O)c3cc(-c4cccnc4)nc4ccc(Br)cc34)CC2)cc1 | inconclusive: 7.31 µM [cytotoxic, partial curve]
10 | COc1ccc(CN(CC(=O)NC2CCCC2)C(=O)CCC(=O)Nc2nccs2)cc1 | inactive
11 | CCOc1cc(C(=O)Nc2ccc(S(=O)(=O)NC3=NCCCCC3)cc2)cc(OCC)c1OCC | inactive
12 | Cc1ccc2oc(=O)c3cc(C(=O)NCCN4CCN(C)CC4)sc3c2c1 | inactive
13 | COc1ccc2oc(C(=O)OC(C)C(=O)N3CCC(C)CC3)c(C)c2c1 (stereo not given) | inconclusive: 14.6 µM [cytotoxic, single point]
14 | CC(C)CN(CC(C)C)S(=O)(=O)N1CCC(C(=O)NCc2ccco2)CC1 | inconclusive: 20.6 µM [cytotoxic, single point]
15 | COc1ccccc1NC(=O)Nc1cccc(NC(C)=O)c1 | inconclusive: 32.6 µM [cytotoxic, single point]
16 | CCCOc1ccc(/C(O)=C2/C(=O)C(=O)N(c3ccccn3)C2c2ccc(OC)cc2)cc1C (stereo not given) | inconclusive: 29.1 µM [cytotoxic, single point]
17 | Cc1cnc(NC(=O)CCc2ccccc2)s1 | inactive
18 | Cc1cc(-n2c(SCC(=O)Nc3ccc(Br)cc3)nc3n[nH]c(C)c3c2=N)ccc1Cl | inactive
19 | Cc1ccsc1/C=C1/CN(C)Cc2c1nc1ccccc1c2C(=O)O | inactive
20 | O[C@H]1C[C@H](c2ccccc2)N(CC2CCCCC2)C[C@@H]1n1cc(-c2ccc(F)cc2)nn1 | inconclusive: 29.1 µM [cytotoxic, single point]
21 | O=S(=O)(c1cnccc1N1CCN(/N=C/c2ccc(Cl)cc2)CC1)N1CCCCC1 | inactive
22 | CCn1nnc(NC(=O)c2ccc([N+](=O)[O-])o2)n1 | inactive
23 | Cc1cccc(OC(C)C(=O)N(Cc2cccs2)C2CCS(=O)(=O)C2)c1C (stereo not given) | active: 5.8 µM
24 | COc1cccc(-c2nc(SCC(=O)N3CCc4ccccc43)c3c(=O)n(C)c(=O)n(C)c3n2)c1 | inactive

Among those listed so far, these contain an NH in an aromatic ring.
Row | Compound | Potency
2 | CCOC(=O)c1ccc(NC(=O)CSc2nc3ncccc3[nH]2)cc1 | inconclusive: 29.1 µM [cytotoxic, single point]
3 | COc1ccc(CCNc2nc(=S)[nH]c3cc(OC)c(OC)cc23)cc1OC | inactive
18 | Cc1cc(-n2c(SCC(=O)Nc3ccc(Br)cc3)nc3n[nH]c(C)c3c2=N)ccc1Cl | inactive

Following part

Row | Compound | Potency
25 | COC(=O)c1sc2nc(SCc3ccccc3C)n(N)c(=O)c2c1C | inactive
26 | c1ccc2sc(-n3cc(C4CCCCC4)nn3)nc2c1 | inconclusive: 23.1 µM [cytotoxic, partial curve]
27 | O=C(NCC(=O)N1CCN(Cc2ccccc2)CC1)c1ccc(Br)o1 | inactive
28 | Cc1cc2c(n1-c1ccc(C(N)=O)cc1)CC(C)(C)CC2=O | inactive
29 | Cc1ccc(S(=O)(=O)N(C)C)cc1NC(=S)NC1CCCC(C)C1C (stereo not given) | inconclusive: 23.1 µM [cytotoxic, single point]
30 | COc1ccc(CC2(CO)CCN(Cc3cc4ccccc4o3)CC2)cc1 | inconclusive: 18.4 µM [cytotoxic, partial curve, poor fit]
31 | CC(=O)OCC(=O)N1N=C(c2ccc3ccccc3c2)CC1c1ccccc1 (stereo not given) | inconclusive: 16.4 µM [rising, partial curve, poor fit]
32 | Cc1ccc(S(=O)(=O)N2CCN(C(=O)CN3CCCC3)C2)cc1 | inconclusive: 0.651 µM [rising, partial curve, poor fit]
33 | COc1ccc(-c2nc3cnccn3c2Nc2ccc3c(c2)OCO3)cc1 | inconclusive: 32.6 µM [cytotoxic, single point]
34 | Cc1cccnc1NC(=O)c1cc2ccccc2oc1=O | inconclusive: 14.6 µM [cytotoxic, single point]
35 | Cc1[nH]c2ccccc2c1CCNC(=O)c1ccc2c(c1[N+](=O)[O-])C(=O)c1ccccc1C2=O | active: 16.4 µM
36 | COc1cccc(C(O)c2nc(/C=C/c3ccc(C(F)(F)F)cc3)cs2)c1 (stereo not given) | inconclusive: 29.1 µM [cytotoxic, single point]
37 | Clc1ccccc1Cc1cn2cc(-c3ccccc3)nc2s1 | inconclusive: 29.1 µM [rising, single point]
38 | CCCCNC(=O)C(CC)(ONc1ccccc1C(F)(F)F)c1ccccc1OC (stereo not given) | inactive
39 | CC(C)[C@H](NC(=O)c1ccccc1Cl)C(=O)OCC(=O)NC(=O)NCc1ccco1 | inconclusive: 29.1 µM [rising, single point]
40 | CS(=O)(=O)Nc1ccc(C2=NN(C(=O)c3ccco3)C(c3ccco3)C2)cc1 (stereo not given) | inactive
41 | CCOC(=O)C(C(=O)Nc1ccc(C)cc1)C1CCCCC1 (stereo not given) | active: 9.2 µM
42 | COc1cccc(-c2nnc(NC(=O)c3cccc(F)c3)o2)c1 | inconclusive: 3.66 µM [cytotoxic, full curve]
43 | Cc1cc(C)cc(NC(=O)C2(c3cccs3)CCOCC2)c1 | inconclusive: 29.1 µM [cytotoxic, single point]
44 | Cc1ccc(NC(=O)c2ccc(F)c(S(=O)(=O)N3CCOCC3)c2)cc1F | active: 3.66 µM
45 | CCOC(=O)c1cc2occc2n1CCCN1C(=O)c2ccccc2C1=O | inconclusive: 8.2 µM [cytotoxic, partial curve]
46 | O=C(N/N=C/c1ccccc1[N+](=O)[O-])c1ccc(COc2ccccc2-c2ccccc2)cc1 | active: 2.06 µM
47 | COc1ccccc1S(=O)(=O)N(C)C[C@H]1OCc2cnnn2CCCC(=O)N([C@H](C)CO)C[C@@H]1C | inconclusive: 25.9 µM [rising, single point]
48 | Nc1nc(SCc2ccccc2Cl)nc2nc3c(cc12)CCCC3 | inconclusive: 4.61 µM [cytotoxic, full curve]

Row | Compound | Potency
49 | COc1ccccc1NC(=O)CSc1nnc2c3ccccc3n(C)c2n1 | inactive
50 | COc1ccc(N/C=C(/C(C)=O)c2ccccc2)cc1 | inconclusive: 29.1 µM [cytotoxic, single point]
51 | CC(C)COc1ccccc1C1CC(=O)Nc2cc3c(cc21)OCO3 (stereo not given) | inconclusive: 2.91 µM [cytotoxic, full curve, poor fit]
52 | COCCNc1ncnc2c1cnn2Cc1ccccc1Cl | inconclusive: 13 µM [cytotoxic, partial curve]
53 | O=S(=O)(NC1c2cccc3cccc(c23)C1Sc1ncccn1)c1ccccc1 (stereo not given) | inactive
54 | Cc1c(C(=O)NCc2ccc(Cl)c(Cl)c2)sc(=O)n1Cc1ccc(S(C)(=O)=O)cc1 | inconclusive: 20.6 µM [cytotoxic, single point]
55 | Cc1ccc(S(=O)(=O)N2CCN(C(=O)[C@H](Cc3ccccc3)NC(=O)c3ccco3)CC2)cc1C | active: 11.6 µM
56 | Cc1ccc(-n2c(-c3ccco3)nc3nc4ccccc4nc32)cc1 | inactive
57 | Cc1oc(S(=O)(=O)N2CCCCC2)cc1NC(=O)Nc1ccc(Cl)cc1 | inconclusive: 8.2 µM [cytotoxic, partial curve]
58 | CCc1ccc(N(CC(=O)NC(C)(C)C)C(=O)CNC(=O)c2cccs2)cc1 | inconclusive: 23.1 µM [cytotoxic, single point]
59 | Cc1ccc(NC(=O)CCCSc2nc3ccccc3[nH]2)cc1 | inconclusive: 13 µM [cytotoxic, partial curve]
60 | O=C(COC(=O)c1c2c(nc3ccccc13)/C(=C\c1cccs1)CCC2)Nc1ccccc1Cl | inconclusive: 20.6 µM [cytotoxic, partial curve, poor fit]
61 | O=C(Nc1cc2c(cc1Cl)OCCO2)c1ccco1 | inconclusive: 29.1 µM [cytotoxic, single point]
62 | Cc1ccc(S(=O)(=O)N2[C@H](CC(=O)c3ccccc3)OC[C@@H]2C(C)C)cc1 | inconclusive: 16.4 µM [cytotoxic, partial curve]
63 | CCN(CC)S(=O)(=O)c1ccc(N2CCOCC2)c(NC(=O)C23CC4CC(CC(Cl)(C4)C2)C3)c1 | active: 23.1 µM
64 | CCOC(=O)c1c(C)sc(-c2c(-c3ccc(OC)c(F)c3)[nH]c3c2c(=O)[nH]c(=O)n3C)c1O | inactive
65 | O=C(Nc1ccc(F)c(Cl)c1)C1CCN(c2ncnc3c2nc2n3CCCCC2)CC1 | inconclusive: 2.91 µM [cytotoxic, full curve, poor fit]
66 | CCC(CC)C(=O)Nc1ccc2nc(SCC(=O)N3c4ccccc4CC3C)sc2c1 (stereo not given) | inactive
67 | CCN1C(=O)c2cccc3c(S(=O)(=O)N(C(=O)c4cccnc4)c4ccc(OC)cc4)ccc1c23 | inactive
68 | CC(C)(C)C(=O)Nc1nc2c(s1)COc1ccccc1-2 | inconclusive: 18.4 µM [cytotoxic, single point]
69 | Cc1ccccc1OCC(=O)N(Cc1cccs1)C1CCS(=O)(=O)C1 (stereo not given) | inactive
70 | Cc1ccc(S(=O)(=O)Nc2ccc(Cl)cn2)cc1C | inactive

Laid out differently: three of the compounds above.

| Row | Compound | Potency |
| --- | --- | --- |
| 68 | CC(C)(C)C(=O)Nc1nc2c(s1)COc1ccccc1-2 | inconclusive: 18.4 µM [cytotoxic, single point] |
| 69 | Cc1ccccc1OCC(=O)N(Cc1cccs1)C1CCS(=O)(=O)C1 (stereo not given) | inactive |
| 70 | Cc1ccc(S(=O)(=O)Nc2ccc(Cl)cn2)cc1C | inactive |
